# Results published in PubChem BioAssay AID1963317 (National Center for Advancing Translational Sciences (NCATS), 2024).
# Protein sequences, listed by entry. Tags and fused reporters are not part of them.
# UniProt P00519, whole entry, looked up: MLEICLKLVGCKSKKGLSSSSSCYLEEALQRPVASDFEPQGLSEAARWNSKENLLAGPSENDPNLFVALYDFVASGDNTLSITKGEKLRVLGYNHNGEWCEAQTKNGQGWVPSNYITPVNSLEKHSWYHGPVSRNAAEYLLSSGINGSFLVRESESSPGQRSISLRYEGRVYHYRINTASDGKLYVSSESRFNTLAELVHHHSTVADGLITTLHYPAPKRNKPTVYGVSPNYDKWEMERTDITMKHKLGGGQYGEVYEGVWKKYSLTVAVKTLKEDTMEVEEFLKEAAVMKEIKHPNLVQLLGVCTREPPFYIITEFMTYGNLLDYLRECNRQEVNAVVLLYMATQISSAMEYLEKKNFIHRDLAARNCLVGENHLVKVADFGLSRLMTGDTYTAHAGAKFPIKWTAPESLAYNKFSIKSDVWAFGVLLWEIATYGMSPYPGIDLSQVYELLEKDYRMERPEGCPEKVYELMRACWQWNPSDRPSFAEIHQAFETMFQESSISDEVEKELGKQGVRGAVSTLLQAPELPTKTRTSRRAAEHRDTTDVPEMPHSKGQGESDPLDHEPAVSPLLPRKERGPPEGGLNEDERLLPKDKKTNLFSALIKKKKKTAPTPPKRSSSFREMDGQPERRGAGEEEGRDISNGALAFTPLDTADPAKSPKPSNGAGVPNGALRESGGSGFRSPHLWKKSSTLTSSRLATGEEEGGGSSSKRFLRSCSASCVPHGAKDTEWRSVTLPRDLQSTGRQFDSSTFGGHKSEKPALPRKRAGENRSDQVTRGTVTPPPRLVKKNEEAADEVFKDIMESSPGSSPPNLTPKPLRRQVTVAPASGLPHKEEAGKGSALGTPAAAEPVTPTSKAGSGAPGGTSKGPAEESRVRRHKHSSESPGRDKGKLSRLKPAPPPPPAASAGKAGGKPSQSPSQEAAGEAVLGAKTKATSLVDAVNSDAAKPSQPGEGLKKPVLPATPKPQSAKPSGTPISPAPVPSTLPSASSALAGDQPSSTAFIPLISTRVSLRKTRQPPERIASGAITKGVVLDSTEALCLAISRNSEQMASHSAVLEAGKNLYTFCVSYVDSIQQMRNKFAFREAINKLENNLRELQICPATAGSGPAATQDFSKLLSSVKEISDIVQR
# The inconclusive results got no clear call from the source; some entries with a clear call stand among them for comparison. A potency beside an inconclusive call is a rough fit, not a confirmed value. Active and inactive are the calls of the source. Calls come from the whole dose curve.
# Molecular target: Tyrosine-protein kinase ABL1 (Homo sapiens) (UniProt P00519)
# Assay: ABL1 kinase (ABL1-N-HiBiT) enzymatic inhibition screen - Functional assay
# Settings: luminescence; series mostly up to 57.5 µM
# Text: National Center for Advancing Translational Sciences (NCATS),
# National Institute of Health (NIH), Maryland
# Discovery and optimization of novel protein-binding ligands underlies many of the methods and applications of biology, drug discovery, clinical diagnostics, and environmental toxicology. Assays for detecting the interaction of, for example, a molecule with a macromolecular target also referred to here as the target of interest (TOI) is dependent on a compatible output technology. Depending on the nature and knowledge surrounding the TOI, whether a receptor, enzyme, regulatory subunit or scaffold, or a sequence-defined nucleic acid folded into a complex tertiary structure, assay strategies can vary widely.
# Here we exploit ligand-biased changes in the structural dynamics of the target protein to control reporter alpha complementation allowing a non-competitive, non-functional, non-separation measure of ligand-target interaction.
# Using a chemical library of >1,200 compounds enriched for scaffolds known to be associated with the inhibition of firefly luciferase (FLuc) activity (PubChem AIDs 2309) we first illustrate and compare the Structural Dynamics Response (SDR) assay vs. the standard functional FLuc enzyme assay (2). Secondly, we show the specificity and sensitivity of the SDR for the Abelson tyrosine kinase (ABL1) compared to the serine/threonine protein kinase A, using an enriched chemical library of 128 compounds selected, in part, for activity annotated with ABL1 kinase activity using the Pharos database (3).
# (1) A. S. Dixon et al., NanoLuc Complementation Reporter Optimized for Accurate Measurement of Protein Interactions in Cells.
# Chemistry & Biology, 19, 1060 - 1072 (2012).
# (3) K. J. Kelleher et al., Pharos 2023: an integrated resource for the understudied human proteome. Nucleic Acids Res 51, D1405-D1416 (2023).
# PROTOCOL TABLE (as described by Inglese J, Shamu CE and Guy RK. 2007)
# SEQUENCE No. (e.g., 1, 2, 3, etc.); […] (e.g., C. elegans, Compounds, Incubation, Read, etc.); VALUE and DESCRIPTION.
# 1. Reagent. Dispense 4 uL ABL1-N-HiBiT enzyme per well at a final enzyme concentration of 10 nM in buffer with 87.5 uM ATP (functional assay) into columns 2-48 of four replicate Greiner 1536-well white, solid bottom high base, medium plates per assay. Dispense respective buffer without enzyme at 4 uL/well in column 1 of assay plates using BioRaptr 2.
# 2. Compounds. Library compounds added at 23 nL/well by pin transfer. DMSO neutral control and imatinib positive control added at 25 nL/well, transfer by Mosquito dispenser.
# 3. Incubation. Incubate enzyme and compounds at room temperature for 30 min, protected from light.
# 4. Reagent. (Functional assay) Transfer 25 nL of abltide peptide substrate to each well of four replicate kinase assay plates with Mosquito dispenser.
# 5. Incubation. (Functional assay) Kinase enzyme incubated with peptide substrate for 3 h at room temperature, protected from light.
# 6. Reagent. (Functional assay) Add 4 uL/well of Kinase-Glo Plus reagent (Promega) to kinase activity assay plates, in the presence of ATP.
# 7. Detector. (Functional assay) Luminescence measured using CCD-based camera (ViewLux) with settings as follows: Exposure, 1 sec; Gain, High; Speed, Slow; Binning, 2X.
# Inglese J, Shamu CE and Guy RK, Reporting data from high throughput screening of small molecule libraries, Nature Chemical Biology, 2007, 3(8): 438-441. doi.org/10.1038/nchembio0807-438.
row,Structure (SMILES),Potency
1,Nc1nc(NCCNc2ncc(-n3ccnc3)c(-c3ccc(Cl)cc3Cl)n2)ccc1[N+](=O)[O-],inconclusive: 0.276 µM [activator]
2,Cc1cc(Nc2ncc3c(n2)N(C)C(=O)N(c2cc(NC(=O)c4cccc(C(F)(F)F)c4)ccc2C)C3)n(C)n1,active: 0.141 µM
3,N#Cc1ccc2ncnc(NCCc3ccccc3)c2c1,inconclusive: 3.23 µM [activator]
4,C#Cc1cccc(Nc2ncnc3cc4c(cc23)OCCOCCOCCO4)c1,inconclusive: 7.26 µM [inhibitor]
5,CNS(=O)(=O)c1ccc2c(c1)/C(=C/c1[nH]c3c(c1CCCN1CCN(C)CC1)CCCC3)C(=O)N2,active: 9.15 µM
6,Cc1cc(F)ccc1-c1nc(NC(CO)CO)nc2c1ccc(=O)n2-c1c(F)cccc1F,inconclusive: 3.55 µM [inhibitor]
7,Cc1cc(O)c2c(c1)C(=O)c1cc(O)cc(O)c1C2=O,inactive
8,COc1cc(N2CCOCC2)ccc1Nc1ncc(Cl)c(Nc2ccccc2NS(C)(=O)=O)n1,inconclusive: 1.12 µM [inhibitor]
9,COC(=O)Nc1ccc(-c2nc(N3CCOCC3)c3cnn(C4CCN(C(=O)OC)CC4)c3n2)cc1,inconclusive: 0.289 µM [activator]
10,Cc1cc(F)ccc1-c1nc(NCCN=C(N)NC#N)nc2c1ccc(=O)n2-c1c(F)cccc1F,inconclusive: 3.73 µM [activator]
11,O=C1C(c2c(O)[nH]c3ccccc23)=Nc2ccccc21,inconclusive: 0.352 µM [inhibitor]
